# Reference: PubChem BioAssay AID258 (DTP/NCI, 2004)
# The list shows only some results of the screen, not a fair sample: it gathers some chemical classes. Not every dose and run of a compound is shown. T/C gives the treated animals as a percentage of the vehicle group. Some entries give survivors of the animals treated and no T/C: the source files T/C as zero there, which appears to mark a toxic dose or a test without result, not a measured value. Survivors were counted at the toxicity check, usually on the fifth day, unless a day is given; later deaths do not show. Schedule codes are those of the source, read here as Q, the interval in days (D) or hours (H), X, the number of doses. Some schedule codes hold Z or #, which are not explained here. Where survival is the endpoint, this PubChem deposit counts one and a half times the control or more as active, and values a quarter to a half above the control carry no call in these data; other NCI protocols may use other cut-offs. Some T/C values carry the count of animals alive at the toxicity check (mostly the fifth day); where neither a count nor a note follows, no animal had died by that day.
# System: CD2F1 mice, L1210 leukemia sc, survival T/C
# Assay: NCI In Vivo Anticancer Drug Screen. Data for tumor model L1210 Leukemia (subcutaneous) in CD2F1 (CDF1) mice
# Settings: T/C endpoint: median survival time, schedule: Q01DX Z (sc), higher T/C = longer survival
# Procedure: The antitumor activity of compounds was measured in mice bearing transplantable tumors. Survival or tumor size were measured and the results are expressed as the measurement made in the treated group (T) divided by the measurement made in the vehicle treated control group (C). The tumor model used in this assay is L1210 Leukemia (subcutaneous) in CD2F1 (CDF1) mice
smiles,measurement,setting,value
NNS(=O)(=O)c1ccc(N(CCCl)CCCl)cc1,survivor count,"dose: 14.0 mg/kg/injection, vehicle: methylcellulose (MC)",6 of 10
same,T/C,"dose: 23.4 mg/kg/injection, vehicle: methylcellulose (MC)",105 % of control [9 of 10 alive]
same,T/C,"dose: 38.9 mg/kg/injection, vehicle: methylcellulose (MC)",105 % of control [8 of 10 alive]
same,T/C,"dose: 64.8 mg/kg/injection, vehicle: methylcellulose (MC)",105 % of control [7 of 10 alive]
same,survivor count,"dose: 108.0 mg/kg/injection, vehicle: methylcellulose (MC)",3 of 10
same,T/C,"dose: 180.0 mg/kg/injection, vehicle: methylcellulose (MC)",105 % of control [9 of 10 alive]
same,T/C,"dose: 300.0 mg/kg/injection, vehicle: methylcellulose (MC)",105 % of control [7 of 10 alive]
Cc1[nH]c(=O)[nH]c(=O)c1N(CCCl)CCCl,survivor count,"dose: 5.0 mg/kg/injection, vehicle: saline",3 of 10
same,survivor count,"dose: 8.4 mg/kg/injection, vehicle: saline",3 of 10
same,T/C,"dose: 14.0 mg/kg/injection, vehicle: saline",142 % of control [7 of 10 alive]
same,survivor count,"dose: 23.0 mg/kg/injection, vehicle: saline",6 of 10
same,T/C,"dose: 39.0 mg/kg/injection, vehicle: saline",126 % of control [8 of 10 alive]
ClCCNCCCCCNCCCl,T/C,"dose: 25.0 mg/kg/injection, vehicle: saline",95 % of control
same,T/C,"dose: 50.0 mg/kg/injection, vehicle: saline",100 % of control
same,T/C,"dose: 100.0 mg/kg/injection, vehicle: saline",100 % of control
same,T/C,"dose: 200.0 mg/kg/injection, vehicle: saline",100 % of control
same,T/C,"dose: 400.0 mg/kg/injection, vehicle: saline",110 % of control
